Measurements reported in PubChem BioAssay AID743454 (Peter MacCallum Cancer Centre, 2014).
The deposit covers about 18,000 reagents; below is an unselected part. 450 of all reagents (2.5%) were called active. 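Single biological run; no consistent viability z cut-off exists, so the class columns, not z-scores, define the calls.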 Unmarked entries are inactive.

- Purpose: 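Genes whose loss kills vorinostat-resistant colon cancer cells under vorinostat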 (primary screen)
- Cell system: human HCT116-VR colon cancer cells, selected for vorinostat resistance
- Reagent: siRNA pool against human genes, 40 nM siRNA pool
- Time to read-out: vorinostat for 24 h, read-out about 72 h after transfection
- Challenge: vorinostat at 2.5 µM final
- Read-out: 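Two measures, CellTiter-Fluor viability and luminescent caspase 3/7 activity, each as fold change against same-plate mock wells, mean of duplicates, then screen-wide robust z-score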
- Scale: viability robust z-score: higher = more viable cells than screen typical; caspase robust z-score: higher = more caspase 3/7 activity than screen typical
- Rule for the call: 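a knock-down is a hit when classed RV1 or RV2 for lowered viability, or CA1 or CA2 for caspase activation; those lethal without drug were dropped; hits were retested singly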

target gene | viability hit class | caspase hit class | viability robust z-score | caspase robust z-score
CLSTN2 (calsyntenin 2) | no change | no change | 0.26 | 0.68
GYS2 (glycogen synthase 2) | no change | no change | -0.18 | -0.2
ANKHD1-EIF4EBP3 (ANKHD1-EIF4EBP3 readthrough) | no change | no change | -0.01 | 0.15
SLC25A34 | no change | no change | 0.66 | 0.01
EPO (erythropoietin) | no change | no change | -0.27 | 0.22
KRTAP10-2 (keratin associated protein 10-2) | no change | no change | -1.23 | 3.46
HOXD13 (homeobox D13) | no change | no change | 0.3 | 0.3
CCDC142 (coiled-coil domain containing 142) | no change | no change | -0.38 | 0.22
MANSC1 (MANSC domain containing 1) | no change | no change | 0.43 | 2.62
CEACAM16 (CEA cell adhesion molecule 16, tectorial membrane component) | no change | no change | 1.46 | 0.94
PLXDC2 (plexin domain containing 2) | no change | no change | -0.08 | -0.24
UBR3 (ubiquitin protein ligase E3 component n-recognin 3) | no change | no change | -1.85 | 1.5
C11orf65 (chromosome 11 open reading frame 65) | no change | no change | -1.42 | 3.87
IER3IP1 (immediate early response 3 interacting protein 1) | no change | no change | -0.54 | 0.66
TMC6 (transmembrane channel like 6) | no change | no change | 0.82 | -0.82

No new results follow: 3 of the entries above.
target gene | viability hit class | caspase hit class | viability robust z-score | caspase robust z-score
GYS2 (glycogen synthase 2) | no change | no change | -0.18 | -0.2
ANKHD1-EIF4EBP3 (ANKHD1-EIF4EBP3 readthrough) | no change | no change | -0.01 | 0.15
SLC25A34 | no change | no change | 0.66 | 0.01

Further results follow.
target gene | viability hit class | caspase hit class | viability robust z-score | caspase robust z-score
BCCIP (BRCA2 and CDKN1A interacting protein) | no change | no change | -1.09 | -0.29
RBMS3 (RNA binding motif single stranded interacting protein 3) | no change | no change | -0.75 | -0.4
RSAD2 (radical S-adenosyl methionine domain containing 2) | no change | no change | 0.29 | 1.9
TADA2A (transcriptional adaptor 2A) | no change | no change | -0.07 | 0.9
PPEF1 (protein phosphatase with EF-hand domain 1) | no change | no change | -1.75 | 2.08
WSCD1 (WSC domain sialate O sulfotransferase 1) | no change | no change | 0.38 | -0.68
SUN2 (Sad1 and UNC84 domain containing 2) | no change | no change | -0.42 | 2.27
CIMAP1B (ciliary microtubule associated protein 1B) | no change | no change | -1.19 | -0.58
SIDT2 (SID1 transmembrane family member 2) | no change | no change | 1.07 | 1.64
KLHL30 (kelch like family member 30) | no change | no change | 0.25 | 1.66
KCNG1 | no change | no change | 0.78 | 3.92
DNAJC17 (DnaJ heat shock protein family (Hsp40) member C17) | no change | no change | 0.57 | -0.05
ABHD5 | no change | no change | 0.08 | -0.81
SFR1 (SWI5 dependent homologous recombination repair protein 1) | no change | no change | 0.95 | -0.32
PDPK1 (3-phosphoinositide dependent protein kinase 1) | no change | no change | 0.2 | -0.34
FZD5 (frizzled class receptor 5) | no change | no change | 0.42 | 0.5
EEA1 (early endosome antigen 1) | no change | no change | 1.34 | 0.61
SLC38A4 | no change | no change | -0.3 | -0.51
TRIM49 (tripartite motif containing 49) | no change | no change | -0.06 | 0.52
SAP18 (Sin3A associated protein 18) | no change | no change | -2.02 | 4.37
SDR9C7 (short chain dehydrogenase/reductase family 9C member 7) | no change | no change | -0.24 | -0.08
TNN (tenascin N) | no change | no change | -0.46 | 2.59
BSG (basigin (Ok blood group)) | no change | no change | -0.92 | -1.45
SLAMF1 (signaling lymphocytic activation molecule family member 1) | no change | no change | -0.12 | -0.06
